Data: publication PMC4861429, “Molecular Insights into Toluene Sensing in the TodS/TodT Signal Transduction System” (The Journal of Biological Chemistry, 2016)
These are yes or no findings as the source states them, for the method shown.

Target: SeMet-substituted PAS1 (L71M) (residues 43–168) (Pseudomonas putida F1) (UniProt A5W4E3)
Assay: crystal structure; PAS1(43–168) apo, with 1,2,4-TMB, and SeMet L71M with toluene; sitting or hanging drop, 2.8–3.0 M ammonium phosphate, 0.1 M Tris-HCl pH 8.0–8.5, 21 °C; two molecules in the asymmetric unit; both purified

B1: SeMet-substituted PAS1 (L71M) (residues 43–168) (domain or fragment, UniProt A5W4E3 43-168)
chain: LYEFVGLLDAHGNVLEVNQVALEGGGITMEEIRGKPFWKARWWQISKKTEATQKRLVETASSGEFVRCDVEILGKSGGREVIAVDFSLLPICNEEGSIVYLLAEGRNITDKKKAEAMLALKNQELE
modifications: selenomethionine (SeMet-substituted)
B1 was tested, and the binding was “no binding”.
